No constants are given. Whether binding was seen depends on the method and setting. Binding seen in cells or lysates may run through a third protein. Binding calls can cover weak binding; strength is not graded here. Where a sequence is shown, tags or fusion partners need not be part of it.
Key:
Assay in all cases: co-IP
[1] = biological target: POPDC1 Δ116-Myc (not stated (human or mouse cDNA cloned))
[2] = biological target: POPDC1 Δ172-Myc (not stated (human or mouse cDNA cloned))
[3] = biological target: POPDC1 Δ236-Myc (not stated (human or mouse cDNA cloned))
[4] = biological target: POPDC1 Δ245-Myc (not stated (human or mouse cDNA cloned))

Measured: binding

B1: POPDC2-FLAG (protein, UniProt Q9HBU9 1-364)
chain: MSANSSRVGQLLLQGSACIRWKQDVEGAVYHLANCLLLLGFMGGSGVYGCFYLFGFLSAGYLCCVLWGWFSACGLDIVLWSFLLAVVCLLQLAHLVYRLREDTLPEEFDLLYKTLCLPLQVPLQTYKEIVHCCEEQVLTLATEQTYAVEGETPINRLSLLLSGRVRVSQDGQFLHYIFPYQFMDSPEWESLQPSEEGVFQVTLTAETSCSYISWPRKSLHLLLTKERYISCLFSALLGYDISEKLYTLNDKLFAKFGLRFDIRLPSLYHVLGPTAADAGPESEKGDEEVCEPAVSPPQATPTSLQQTPPCSTPPATTNFPAPPTRARLSRPDSGILASRIPLQSYSQVISRGQAPLAPTHTPEL
binds: all assays above

From paper doi:10.1101/2022.10.13.511879 (bioRxiv, 2022)
